Results deposited as PubChem BioAssay AID504793 (Drosophila RNAi Screening Center, 2011).
The deposit covers about 23,000 reagents; shown is a random part of those that have a named target and a result. In the full data, 62 (0.27%) are marked active. 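Calls come from follow-up tests whose scores are not deposited, so confirmed genes may have low counts here; counts are not normalised per plate.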 Raw values are not corrected between plates. Entries without a mark were called inactive. Names joined by + are all predicted targets of the reagent.

- Purpose: 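Knock-downs allowing continued mitosis even though DNA is damaged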 (primary screen)
- System: Drosophila S2R+ cells
- Knock-down reagent: long dsRNA against Drosophila genes, about 0.25 µg dsRNA per well
- Time to read-out: 4 days of dsRNA, then 4 hours of drug before read-out
- Treatment: doxorubicin 0.5 µM for 4 hours to cause double-strand breaks, in cells also given a low, harmless dose of dsRNA against nbs to sensitise the assay
- Detection: 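Mitotic index as the number of phospho-histone H3-positive cells in each well following doxorubicin, given as raw counts without normalisation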
- Reading the numbers: mitotic cells: higher = more cells in mitosis, weaker G2 arrest
- Call rule: 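Genes are called active only when high mitotic counts were reproduced with independent dsRNAs and mitosis was checked for delay without damage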
- Calls: active = confirmed in follow-up tests; inactive = not confirmed

| gene | amplicon | mitotic cells, replicate 1 |
| --- | --- | --- |
| Root (Rootletin) | DRSC15972 | 8 |
| Aatf (Apoptosis antagonizing transcription factor) | DRSC02131 | 10 |
| Aatf (Apoptosis antagonizing transcription factor) | DRSC29405 | 5 |
| Sin1 (SAPK-interacting protein 1) | DRSC05965 | 6 |
| CG13250 | DRSC11698 | 1 |
| CG13250 | DRSC27753 | 5 |
| CG12995 | DRSC19515 | 8 |
| CG12995 | DRSC27519 | 5 |
| Ir68a (Ionotropic receptor 68a) | DRSC10599 | 4 |
| blw (bellwether) | DRSC04675 | 5 |
| topi (matotopetli) | DRSC16431 | 13 |
| slv (saliva) | DRSC07685 | 2 |
| Lcp1Psi (Larval cuticle protein 1 pseudogene) | DRSC05105 | 10 |
| Lcp1Psi (Larval cuticle protein 1 pseudogene) | DRSC28465 | 8 |
| Set | DRSC16861 | 5 |
| Schip1 (Schwannomin interacting protein 1) | DRSC02851 | 11 |
| Schip1 (Schwannomin interacting protein 1) | DRSC28775 | 3 |
| CG15458 | DRSC20529 | 8 |
| Galphai (G protein alpha subunit i) | DRSC11168 | 6 |
| Galphai (G protein alpha subunit i) | DRSC28521 | 12 |
| Vha16-5 (Vacuolar H[+] ATPase 16kD subunit 5) | DRSC02986 | 3 |
| Octalpha2R (alpha2-adrenergic-like octopamine receptor) | DRSC13319 | 4 |
| Octalpha2R (alpha2-adrenergic-like octopamine receptor) | DRSC15314 | 6 |
| Cp110 (Centriolar coiled coil protein 110kDa) | DRSC20630 | 4 |
| Cp110 (Centriolar coiled coil protein 110kDa) | DRSC21716 | 8 |
| CG15336 | DRSC18019 | 9 |
| CG15336 | DRSC28008 | 4 |
| BBS1 (Bardet-Biedl syndrome 1) | DRSC10196 | 8 |
| Idgf3 (Imaginal disc growth factor 3) | DRSC03351 | 6 |
| CG4119 | DRSC17741 | 10 |
| CG4119 | DRSC27945 | 16 |
| Son (Son RNA binding protein) | DRSC16400 | 2 |
| RpS15Ab + RpS15Aa | DRSC06129 | 3 |
| RpS15Ab + RpS15Aa | DRSC19831 | 8 |
| pie (pineapple eye) | DRSC03590 | 4 |
| pigeon | DRSC03565 | 4 |
| EDTP (Egg-derived tyrosine phosphatase) | DRSC07409 | 6 |
| CG32100 | DRSC09725 | 4 |
| CG32100 | DRSC10331 | 3 |
| CG12343 | DRSC06135 | 13 |
| asRNA:CR42743 + CG34162 | DRSC01190 | 10 |
| lncRNA:CR32385 (long non-coding RNA:CR32385) | DRSC22966 | 13 |
| Polr1F (RNA polymerase I subunit F) | DRSC02278 | 11 |
| Polr1F (RNA polymerase I subunit F) | DRSC28047 | 3 |
| Acsf3 (Acyl-CoA synthetase family member 3) | DRSC18146 | 11 |

Laid out differently: results already given
gene	amplicon	mitotic cells, replicate 1
asRNA:CR42743 + CG34162	DRSC01190	10
lncRNA:CR32385 (long non-coding RNA:CR32385)	DRSC22966	13
